The assay addresses 3xFLAG:Spc105 (Aspergillus flavus). Nature of the assay: co-IP; A. flavus mycelial extracts (PDB, 24 h, 30°C) in IP lysis buffer; anti-Flag antibody on Dynabeads Protein G, 4°C for 12 h; washes in PBST (0.02% Tween); blot with anti-HA antibody.

Results are given in words; binding and its absence hold for the method and conditions named. Binding seen in cells or lysates may run through a third protein. Binding can be weak; no strength is given. Tags and fused reporters may be left off the sequences shown.

B1: LaeA:HA (protein, UniProt B8N406 1-369)
chain: MFGNGQTGQRLPAMASPPHDSYYSQSLASSRSRNNSDAMDIYAITDRDPPAREPSGYSQWYRNGSPSVNSIHSKSSEKQPFYEENGRMYHAYRKGVYMLPCDEQEQDRLDIFHKLFTVARVSDGLMYAPHPRNGRFLDLGCGTGIWAIDVANKYPDAFVVGVDLAPIQPSNHPKNCEFYAPFDFESPWAMGEDSWDLIHLQMGCGSVMGWPNLYRRIFAHLRPGAWFEQVEIDFEPRCDDRPLEGLAIRQWYQYLKQATQDAMRPINHNSRDTIRDLQEAGFTDIDHQMVGLPLNPWHQDEHERKVARWYNLAVSESIESLSMAPFSRIFNWDLDRIRRISSEVKSEAFNKEIHAYNILHIYQARKPAN
On to B1, for which the binding result was “binds”.

These data come from paper PMC6700525.
